PubChem BioAssay AID686938, Drosophila RNAi Screening Center – 2013

- Purpose: 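Knock-downs reducing store-operated calcium influx in Drosophila cells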 (primary screen)
- Cells: Drosophila S2R+ cells
- Reagent: long dsRNA against Drosophila genes, about 0.25 µg dsRNA per well, roughly 10,000 cells
- Time to read-out: 5 days of knock-down before the calcium assay
- Challenge: thapsigargin (SERCA pump blocker) to empty calcium stores; entry signal taken 4 min after adding it
- Detection: 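Per-well fluo-4 fluorescence in two replicates, unnormalised, measured in resting cells and 4 min after store depletion by the SERCA blocker thapsigargin; ratio of the two present in few wells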
- Direction: calcium entry signal: higher = stronger calcium signal after store depletion; resting calcium signal: higher = higher resting calcium signal
- Units: calcium entry signal in fluorescence units; resting calcium signal in fluorescence units
- Rule for the call: 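Called when the plate z-score of the entry-to-rest ratio, mean of duplicates, falls below −3; wells with low overall dye signal (Fmax z below −2) or more than five off-targets excluded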
- Meaning of the calls: active = strongly reduced calcium entry; inactive = no strong reduction
In all, the deposit lists about 23,000 reagents; this is a random part of those with a known target gene and a result. In the full data, 75 (0.33%) were called active. 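Raw plate signals without normalisation; calls rest on plate z-scores that were not deposited; ratio present for only 364 wells.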 Entries without a mark were called inactive. Reagent sequences are not shown. Not given: the dose of the treatment.

After knock-down of stj [DRSC06124], the screen gave calcium entry signal, replicate 1 = 3.30e7; calcium entry signal, replicate 2 = 3.75e7; resting calcium signal, replicate 1 = 1.48e7; resting calcium signal, replicate 2 = 1.58e7.
For CG12236 [DRSC17830], the values are calcium entry signal, replicate 1 = 2.91e7; calcium entry signal, replicate 2 = 3.67e7; resting calcium signal, replicate 1 = 1.88e7; resting calcium signal, replicate 2 = 1.76e7.
Against CG12236 [DRSC17831], the entry reads calcium entry signal, replicate 1 = 4.09e7; calcium entry signal, replicate 2 = 4.74e7; resting calcium signal, replicate 1 = 1.95e7; resting calcium signal, replicate 2 = 2.21e7.
After knock-down of CG33792 [DRSC05355], the screen gave calcium entry signal, replicate 1 = 4.85e7; calcium entry signal, replicate 2 = 3.61e7; resting calcium signal, replicate 1 = 2.14e7; resting calcium signal, replicate 2 = 1.46e7.
Buffy [DRSC05957] scored calcium entry signal, replicate 1 = 2.98e7; calcium entry signal, replicate 2 = 3.85e7; resting calcium signal, replicate 1 = 1.64e7; resting calcium signal, replicate 2 = 1.73e7.
With knock-down of CG10681 [DRSC09777], the screen gave calcium entry signal, replicate 1 = 4.62e7; calcium entry signal, replicate 2 = 4.13e7; resting calcium signal, replicate 1 = 3.13e7; resting calcium signal, replicate 2 = 1.81e7.
CG10681 [DRSC21484] gave calcium entry signal, replicate 1 = 2.79e7; calcium entry signal, replicate 2 = 3.80e7; resting calcium signal, replicate 1 = 1.28e7; resting calcium signal, replicate 2 = 1.69e7.
Depletion of p24-1 [DRSC19827] gave: calcium entry signal, replicate 1 = 2.29e7; calcium entry signal, replicate 2 = 3.19e7; resting calcium signal, replicate 1 = 1.32e7; resting calcium signal, replicate 2 = 1.79e7.
For CG2082 [DRSC12125] the deposit lists calcium entry signal, replicate 1 = 3.25e7; calcium entry signal, replicate 2 = 3.80e7; resting calcium signal, replicate 1 = 1.65e7; resting calcium signal, replicate 2 = 1.89e7.
For CG5126 [DRSC00680], the values are calcium entry signal, replicate 1 = 4.98e7; resting calcium signal, replicate 1 = 2.70e7.
Against dmGlut [DRSC02835] the deposit lists calcium entry signal, replicate 1 = 5.53e7; resting calcium signal, replicate 1 = 2.67e7.
Knock-down of CG18585 [DRSC02678] gave: calcium entry signal, replicate 1 = 4.73e7; resting calcium signal, replicate 1 = 2.66e7.
CR40282 [DRSC07814] gave calcium entry signal, replicate 1 = 2.97e7; calcium entry signal, replicate 2 = 3.79e7; resting calcium signal, replicate 1 = 1.65e7; resting calcium signal, replicate 2 = 1.67e7.
Against mahe [DRSC17755] the deposit lists calcium entry signal, replicate 1 = 4.75e7; calcium entry signal, replicate 2 = 4.04e7; resting calcium signal, replicate 1 = 2.09e7; resting calcium signal, replicate 2 = 1.96e7.
With knock-down of Rpp21 [DRSC22480], the record shows calcium entry signal, replicate 1 = 3.57e7; calcium entry signal, replicate 2 = 3.48e7; resting calcium signal, replicate 1 = 2.11e7; resting calcium signal, replicate 2 = 1.73e7.
After knock-down of Mtk [DRSC07475] the results were calcium entry signal, replicate 1 = 3.36e7; calcium entry signal, replicate 2 = 3.49e7; resting calcium signal, replicate 1 = 1.75e7; resting calcium signal, replicate 2 = 1.68e7.
With knock-down of RASSF8 [DRSC15707] the results were calcium entry signal, replicate 1 = 2.77e7; calcium entry signal, replicate 2 = 3.59e7; resting calcium signal, replicate 1 = 1.42e7; resting calcium signal, replicate 2 = 1.78e7.
Knock-down of JhI-21 [DRSC02161] came out at: calcium entry signal, replicate 1 = 4.69e7; resting calcium signal, replicate 1 = 2.35e7.
For CG17065 [DRSC20544], the values are calcium entry signal, replicate 1 = 2.23e7; calcium entry signal, replicate 2 = 4.11e7; resting calcium signal, replicate 1 = 1.59e7; resting calcium signal, replicate 2 = 1.81e7.
Against htl [DRSC16968], the entry reads calcium entry signal, replicate 1 = 4.21e7; calcium entry signal, replicate 2 = 3.65e7; resting calcium signal, replicate 1 = 1.88e7; resting calcium signal, replicate 2 = 1.62e7.
Silencing of CheB42c [DRSC04972] resulted in: calcium entry signal, replicate 1 = 3.50e7; calcium entry signal, replicate 2 = 3.70e7; resting calcium signal, replicate 1 = 2.36e7; resting calcium signal, replicate 2 = 1.71e7.

Reformatted: 3 of the entries above
target gene | DRSC id | calcium entry signal, replicate 1 | calcium entry signal, replicate 2 | resting calcium signal, replicate 1 | resting calcium signal, replicate 2
mahe | DRSC17755 | 4.75e7 | 4.04e7 | 2.09e7 | 1.96e7
Rpp21 | DRSC22480 | 3.57e7 | 3.48e7 | 2.11e7 | 1.73e7
Mtk | DRSC07475 | 3.36e7 | 3.49e7 | 1.75e7 | 1.68e7
